{"sequences": {"note": "Amino acid sequences for entries named in this document (tags omitted). Chains listed by the source or under a name are the forms on record and can include a tag or linker.", "UniProt P13569, with tags, fused parts or gaps DEL508-508": "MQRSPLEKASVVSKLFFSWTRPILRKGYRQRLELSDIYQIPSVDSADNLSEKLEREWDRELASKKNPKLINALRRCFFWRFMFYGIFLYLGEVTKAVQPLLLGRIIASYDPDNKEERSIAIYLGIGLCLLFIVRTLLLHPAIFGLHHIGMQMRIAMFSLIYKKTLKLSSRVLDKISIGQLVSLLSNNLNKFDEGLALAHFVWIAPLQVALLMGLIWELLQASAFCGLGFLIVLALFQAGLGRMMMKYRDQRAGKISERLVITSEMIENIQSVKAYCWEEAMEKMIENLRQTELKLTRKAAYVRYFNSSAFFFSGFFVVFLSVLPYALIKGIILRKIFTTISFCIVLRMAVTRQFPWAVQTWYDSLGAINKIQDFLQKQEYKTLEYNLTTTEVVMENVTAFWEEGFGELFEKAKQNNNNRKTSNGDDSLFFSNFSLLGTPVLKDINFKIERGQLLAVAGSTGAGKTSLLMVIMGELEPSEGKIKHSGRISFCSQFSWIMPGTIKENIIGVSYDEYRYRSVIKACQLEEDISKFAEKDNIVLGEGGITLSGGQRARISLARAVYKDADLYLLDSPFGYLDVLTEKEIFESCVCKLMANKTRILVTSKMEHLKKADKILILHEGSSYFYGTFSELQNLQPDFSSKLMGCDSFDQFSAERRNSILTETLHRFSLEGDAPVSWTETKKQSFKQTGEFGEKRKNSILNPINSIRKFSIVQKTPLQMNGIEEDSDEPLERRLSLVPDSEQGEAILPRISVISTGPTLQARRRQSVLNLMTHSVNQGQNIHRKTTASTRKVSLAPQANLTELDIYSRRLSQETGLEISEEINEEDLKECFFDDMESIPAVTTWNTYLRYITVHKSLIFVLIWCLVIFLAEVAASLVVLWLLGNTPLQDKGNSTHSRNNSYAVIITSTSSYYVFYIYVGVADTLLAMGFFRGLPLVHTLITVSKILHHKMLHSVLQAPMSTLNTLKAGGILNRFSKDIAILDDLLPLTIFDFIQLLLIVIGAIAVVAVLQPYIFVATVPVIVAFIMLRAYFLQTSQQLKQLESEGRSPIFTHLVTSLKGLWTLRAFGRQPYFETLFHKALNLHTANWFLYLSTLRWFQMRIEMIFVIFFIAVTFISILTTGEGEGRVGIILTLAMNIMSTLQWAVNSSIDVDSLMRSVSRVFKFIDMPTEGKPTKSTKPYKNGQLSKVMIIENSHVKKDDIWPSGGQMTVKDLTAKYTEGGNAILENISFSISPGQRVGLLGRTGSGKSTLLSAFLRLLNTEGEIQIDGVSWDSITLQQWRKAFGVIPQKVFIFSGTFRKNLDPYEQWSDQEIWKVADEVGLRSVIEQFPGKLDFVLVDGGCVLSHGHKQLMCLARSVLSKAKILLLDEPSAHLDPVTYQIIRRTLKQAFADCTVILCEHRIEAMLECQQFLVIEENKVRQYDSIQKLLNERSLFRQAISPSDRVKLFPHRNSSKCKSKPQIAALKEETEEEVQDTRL"}, "source": "patent US9926315B2", "about": "“Triazolopyridine compounds and methods for the treatment of cystic fibrosis” (Flatley Discovery Lab, LLC, priority 2014, dated 2018)", "target": "human ΔF508-CFTR (Homo sapiens, UniProt P13569, DEL508-508)", "test": "CFTR-YFP High Throughput Assay (HTS YFP flux assay, corrector / potentiator protocols)", "conditions": "FRT cells stably expressing human ΔF508-CFTR and YFP-H148Q/I152L", "protocol": "Assays for Detecting and Measuring the Effect of Compounds on dF508-CFTR Channels CFRT-YFP High Throughput Assay: Corrector Assay:\nThe following protocol is designed to selectively screen small molecule compounds for F508del CFTR corrector activities in the HTS YFP flux assay. In this protocol, the cells are incubated with testing compounds for 24 hours, washed with PBS, stimulated with forskolin and a standard potentiator, and read on a 384-well HTS plate reader, such as the Hamamatsu FDDD-6000.\nYFP fluorescence intensity is acquired at high speed before and after iodide buffer is injected to the assay cells. Iodide enters the cells via active CFTR channels in the plasma membrane, and quenches the YFP fluorescence. The rate of fluorescence quenching is proportionally related to the total CFTR activities in the cell membrane. dF508-CFTR corrector accelerates YFP quenching by increasing the number of CFTR molecules in the testing cell plasma membrane.\nThis method was initially developed for bench top plate readers (Galietta, 2001), and was adapted to the HTS format (Sui, 2010). […]\nYFP fluorescence intensity is acquired at high speed before and after iodide buffer is injected to the assay cells. Iodide enters the cells via active CFTR channels in the plasma membrane, and quenches the YFP fluorescence. […]", "note": "pEC50: −log10 of the molar value. The structures given here were assigned with low confidence; some may be wrong.", "data": [{"smiles": "O=S(=O)(c1ccccc1)c1ccc2nc(Nc3ccc(-c4ccccn4)cc3)nn2c1", "values": [{"measurement": "pEC50", "value": "5.00 to 6.00"}, {"measurement": "Emax (% Efficacy, EMax normalized to the positive control)", "setting": "normalized to positive control", "value": "++ (“++” refers to a range of 80%-40%)"}]}]}
